# Test results published in the supplement of paper PMC8426693.
# Some of the results follow.
# Tested on: SARS-CoV-2 frameshift pseudoknot (PK) RNA
# Experiment: NMR binding call after quantification (hit when 2 of 3 NMR criteria are met) (binary (1 = binding, 0 = not binding)); higher = binding
# Conditions: RNA concentration 10 µM; fragment concentration 200 µM; 293 K
row,Compound,NMR binding call
1,CNS(=O)(=O)Cc1cc(C)on1,0
2,CN1CCN(C(=O)CO)CC1,0
3,Cc1ccc(C)c(OC(=O)c2ccncc2)c1,0
4,CCN(CC)C(=O)c1cc(C)no1,0
5,CS(=O)(=O)N1CCCC(C(=O)O)C1 (centres undefined),0
6,CN(C)C(=O)CNc1ccccc1,0
7,Cc1noc(CN2CCC(CO)CC2)n1,0
8,O=C1CN(Cc2ccccc2)CC(=O)N1,0
9,CC(=O)Nc1nnc(SC(C)C)s1,0
10,COc1cccc2c1CCCC(=O)N2,0
11,Cc1cnc(NC(=O)CCC2CCCC2)s1,0
12,CC(C(N)=O)N1CCN(S(C)(=O)=O)CC1 (centres undefined),0
13,CC1CNCCN1CCO (centres undefined),0
14,CCn1ccc(CNC)n1,0
15,O=C(NCCc1ccc(F)cc1)c1ccco1,0
16,NC(=O)c1ccnc(NC2CC=CC2)c1,0
17,CN1CCCC(OC(=O)c2ccco2)C1 (centres undefined),0
18,CNC(=O)CN1CCNCC1,0
19,Cc1nnc(NC(=O)N2CCOCC2)s1,0
20,Cc1ccc(NC(=O)c2ccco2)cc1O,0

# Some of these compounds in order of length of the SMILES, smallest number first.
row,Compound,NMR binding call
14,CCn1ccc(CNC)n1,0
20,Cc1ccc(NC(=O)c2ccco2)cc1O,0
12,CC(C(N)=O)N1CCN(S(C)(=O)=O)CC1 (centres undefined),0

# Continued:

row,Compound,NMR binding call
1,Cc1c(Cl)cccc1NC(=O)C1CCCO1 (centres undefined),0
2,N#Cc1ccc(CNCc2ccc(F)cc2)cc1,0
3,CC(=O)Nc1cc2c(cc1C)OCO2,0
4,CN(C)Cc1ccc(C(=O)O)o1.Cl,0
5,Cl.NC1CCN(S(=O)(=O)c2ccccc2)C1 (centres undefined),0
6,Cc1ccc(CN2CCS(=O)(=O)CC2)cc1,0
7,C1CN(CC2CCOCC2)CCN1,0
8,Cl.NC(=O)c1ccc2c(c1)CCN2,0
9,CCNC(=O)c1ccc(NS(C)(=O)=O)cc1,0
10,Oc1ccc(CN2CCOCC2)c2cccnc12,0
11,Cc1ccc(OCC(=O)Nc2cc(C)on2)cc1,0
12,CNC(=O)CCC1CCCCC1,0
13,CC(=O)Nc1cc(C(N)=O)cc(C(N)=O)c1,0
14,CC(=O)Nc1cccc(NC(N)=O)c1,0
15,NC(=O)C1CCN(C(=O)C2CCCCC2)CC1,0
16,CN(C)C(=O)N1CCOCC12CCOC2 (centres undefined),0
17,Cc1nn(C)c(C)c1NC(=O)CC#N,0
18,c1cnc(N2CCC3(CCOC3)C2)cn1 (centres undefined),0
19,CCC(=O)Nc1ccc(N2CCC(C)CC2)cc1,0
